Measurements as given in the supplement of paper PMC12819154, “High-throughput peptide-centric local stability assay extends protein–ligand identification to membrane proteins, tissues and bacteria” (Nature Structural & Molecular Biology, 2025).
This is one part of the list. Small differences around the control level are noise.

By UniProt entry, the sequences of proteins in these tests, tags left out. Where a name states a change or a piece, a line headed by the entry shows the natural chain unless it says otherwise.
UniProt P61020: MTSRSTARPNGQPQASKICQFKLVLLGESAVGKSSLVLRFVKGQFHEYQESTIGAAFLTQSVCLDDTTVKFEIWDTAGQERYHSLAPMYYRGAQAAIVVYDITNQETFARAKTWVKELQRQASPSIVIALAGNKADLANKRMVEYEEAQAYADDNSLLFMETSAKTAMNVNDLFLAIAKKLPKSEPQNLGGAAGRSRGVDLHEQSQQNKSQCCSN
UniProt P61457: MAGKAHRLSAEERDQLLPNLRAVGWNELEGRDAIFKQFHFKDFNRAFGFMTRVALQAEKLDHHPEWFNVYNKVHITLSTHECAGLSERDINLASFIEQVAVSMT
UniProt P78317: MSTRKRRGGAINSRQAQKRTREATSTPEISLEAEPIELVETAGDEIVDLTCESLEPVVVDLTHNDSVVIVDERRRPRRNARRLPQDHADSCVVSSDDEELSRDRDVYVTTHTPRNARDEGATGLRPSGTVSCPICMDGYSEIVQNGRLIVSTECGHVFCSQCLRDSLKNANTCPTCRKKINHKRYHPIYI
UniProt P55884, whole entry: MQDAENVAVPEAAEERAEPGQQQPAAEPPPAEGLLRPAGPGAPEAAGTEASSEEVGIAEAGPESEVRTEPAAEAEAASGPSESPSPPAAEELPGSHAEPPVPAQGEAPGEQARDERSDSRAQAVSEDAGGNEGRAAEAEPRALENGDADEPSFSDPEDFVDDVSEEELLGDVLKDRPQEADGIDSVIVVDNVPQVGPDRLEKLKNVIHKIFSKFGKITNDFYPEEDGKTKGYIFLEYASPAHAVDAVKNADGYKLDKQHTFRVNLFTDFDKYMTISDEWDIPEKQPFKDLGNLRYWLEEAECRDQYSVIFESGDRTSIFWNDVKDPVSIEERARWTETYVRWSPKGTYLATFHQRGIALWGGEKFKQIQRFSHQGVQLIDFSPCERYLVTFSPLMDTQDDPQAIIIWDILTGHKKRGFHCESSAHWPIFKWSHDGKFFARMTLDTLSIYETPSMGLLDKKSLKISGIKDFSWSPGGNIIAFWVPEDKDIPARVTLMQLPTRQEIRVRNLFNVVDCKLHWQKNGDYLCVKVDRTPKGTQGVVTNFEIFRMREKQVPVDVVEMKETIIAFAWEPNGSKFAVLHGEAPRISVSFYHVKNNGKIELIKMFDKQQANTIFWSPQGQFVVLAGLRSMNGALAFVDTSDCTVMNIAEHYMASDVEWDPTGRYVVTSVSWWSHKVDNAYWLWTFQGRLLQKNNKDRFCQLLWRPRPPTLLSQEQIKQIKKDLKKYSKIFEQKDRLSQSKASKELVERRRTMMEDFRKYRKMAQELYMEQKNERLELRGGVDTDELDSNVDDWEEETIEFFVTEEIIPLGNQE
UniProt P61201: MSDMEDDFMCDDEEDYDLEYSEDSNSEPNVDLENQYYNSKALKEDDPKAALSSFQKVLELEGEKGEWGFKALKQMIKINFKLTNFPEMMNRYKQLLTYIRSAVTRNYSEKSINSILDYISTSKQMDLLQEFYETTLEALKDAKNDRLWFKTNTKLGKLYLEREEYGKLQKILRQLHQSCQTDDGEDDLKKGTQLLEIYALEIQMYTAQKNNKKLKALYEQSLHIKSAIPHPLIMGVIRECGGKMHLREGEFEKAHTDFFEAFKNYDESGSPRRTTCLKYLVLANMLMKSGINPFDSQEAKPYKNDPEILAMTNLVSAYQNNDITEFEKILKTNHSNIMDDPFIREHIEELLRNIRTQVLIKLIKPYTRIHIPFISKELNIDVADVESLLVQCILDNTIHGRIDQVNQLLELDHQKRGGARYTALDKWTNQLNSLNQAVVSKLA
UniProt P55010, whole entry: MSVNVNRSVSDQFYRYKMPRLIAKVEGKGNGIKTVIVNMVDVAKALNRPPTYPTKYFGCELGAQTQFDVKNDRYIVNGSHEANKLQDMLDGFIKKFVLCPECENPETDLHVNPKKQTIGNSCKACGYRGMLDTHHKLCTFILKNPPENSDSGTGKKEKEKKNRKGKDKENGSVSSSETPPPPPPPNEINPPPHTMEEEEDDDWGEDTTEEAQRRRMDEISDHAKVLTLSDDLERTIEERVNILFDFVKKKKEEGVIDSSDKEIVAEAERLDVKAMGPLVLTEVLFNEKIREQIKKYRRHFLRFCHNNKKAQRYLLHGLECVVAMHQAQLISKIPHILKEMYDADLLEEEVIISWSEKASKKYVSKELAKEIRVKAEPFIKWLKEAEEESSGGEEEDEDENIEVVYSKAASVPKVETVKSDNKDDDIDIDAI

The targets below were run with Cc1nc(Nc2ncc(C(=O)Nc3c(C)cccc3Cl)s2)cc(N2CCN(CCO)CC2)n1 [dasatinib] (assay: log2 fold change of tryptic peptide abundance, ligand vs vehicle (limited proteolysis) (log2 ratio); higher = more trypsin-susceptible (destabilized)). Settings: ligand concentration: 5 uM; sample: K562 cleared lysate.

Target	log2 fold change
UniProt P61513 (peptide sequence: AVGIWHCGSCMK, peptide start residue: 51)	0.0451
UniProt P62826 (peptide sequence: AAQGEPQVQFK, peptide start residue: 2)	0.111
UniProt P61020 (peptide sequence: SRGVDLHEQSQQNK, peptide start residue: 196)	0.117
PCBD1 (peptide sequence: DQLLPNLR, peptide start residue: 14) (UniProt P61457)	-0.381
RNF4 (peptide sequence: LIVSTECGHVFCSQCLRDSLK, peptide start residue: 148) (UniProt P78317)	-0.802
EIF3B (peptide sequence: GTYLATFHQR, peptide start residue: 346) (UniProt P55884)	-0.334
UniProt P61201 (peptide sequence: IDQVNQLLELDHQKR, peptide start residue: 402)	-0.142
EIF5 (peptide sequence: VLTLSDDLER, peptide start residue: 225) (UniProt P55010)	0.217
